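Cell-line viability screen: after two days of drug exposure, living myeloma cells were estimated from a luminescent ATP signal. Each compound was titrated across roughly 3.1e-05 to 92 µM. The number is the fitted AC50, the concentration giving half-maximal loss of viability; a lower value means a more potent compound. Calls come from the Hill-curve class and activity score: scores of 40–100 mean active, 1–39 inconclusive (weak, poorly fitted, single-point or opposite-direction curves), and 0 inactive.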

Values are in nM. Every entry below has the call inconclusive. These entries are mostly ones the record files as inconclusive; other results of the assay are not listed here. Potencies fitted to partial, single-point or poorly fitting curves are rough. The first word of each remark tells which way the curve ran; it can be opposite to the aim of the assay. Activity scores are not listed here.

{"smiles": "C[C@](Cc1c[nH]c2ccccc12)(NC(=O)OC1C2CC3CC(C2)CC1C3)C(=O)NC[C@H](NC(=O)CCC(=O)O)c1ccccc1", "stereo": "stereo partly drawn", "fitted potency (nM)": "37221", "remark": "cytotoxic, single point"}
{"smiles": "COc1cc(NS(=O)(=O)c2ccc(N)cc2)nc(OC)n1", "fitted potency (nM)": "9.3", "remark": "rising, full curve, poor fit"}
{"smiles": "CCS(=O)(=O)N1CC(CC#N)(n2cc(-c3ncnc4[nH]ccc34)cn2)C1", "fitted potency (nM)": "4.2", "remark": "cytotoxic, full curve, poor fit"}
{"smiles": "CC(C)Cn1cnc2c(N)nc3ccccc3c21", "fitted potency (nM)": "6619", "remark": "cytotoxic, partial curve, poor fit"}
{"smiles": "c1ccc2c(CN3CCNCC3)cccc2c1", "fitted potency (nM)": "16.6", "remark": "rising, full curve, poor fit"}
{"smiles": "C[C@H]1C[C@H]2[C@@H]3CCC4=CC(=O)C=C[C@]4(C)[C@@H]3C(=O)C[C@]2(C)[C@@]1(O)C(=O)CO", "fitted potency (nM)": "20930", "remark": "cytotoxic, partial curve, poor fit"}
{"smiles": "FC(F)(F)c1ccc(Nc2nc3ccc(Oc4ccnc(-c5ncc(C(F)(F)F)[nH]5)c4)cc3[nH]2)cc1", "fitted potency (nM)": "11770", "remark": "cytotoxic, partial curve, poor fit"}
{"smiles": "CN1[C@@H]2CCC[C@@H]1CC(NC(=O)c1nn(C)c3ccccc13)C2", "stereo": "stereo partly drawn", "fitted potency (nM)": "1321", "remark": "cytotoxic, full curve, poor fit"}
{"smiles": "COc1cc(C(=O)NS(=O)(=O)c2ccccc2C)ccc1Cc1cn(C)c2ccc(NC(=O)OC3CCCC3)cc12", "fitted potency (nM)": "6619", "remark": "cytotoxic, partial curve, poor fit"}
{"smiles": "CCCCCCCCCCCCCCCCCCCCCCO", "fitted potency (nM)": "2093", "remark": "cytotoxic, full curve, poor fit"}
{"smiles": "CC(C)(C)NC(=O)[C@H]1CN(Cc2cccnc2)CCN1C[C@@H](O)C[C@@H](Cc1ccccc1)C(=O)N[C@H]1c2ccccc2C[C@H]1O", "fitted potency (nM)": "3722", "remark": "cytotoxic, full curve, poor fit"}

Source: PubChem BioAssay AID1919868 (NCATS, 2023).